Data: patent publication US20220332844A1 (ORIONIS BIOSCIENCES, published 2022)
Results are given in words; binding and its absence hold for the method and conditions named. Some entries that bind do so weakly or less than the wild type. For some assays here: Sequences can lack the tags named with a protein.

Sequences of proteins named here, by UniProt entry; tags and fusion partners are left off. A change or cut given only in a name is not applied to a line headed by its entry.
UniProt Q12884: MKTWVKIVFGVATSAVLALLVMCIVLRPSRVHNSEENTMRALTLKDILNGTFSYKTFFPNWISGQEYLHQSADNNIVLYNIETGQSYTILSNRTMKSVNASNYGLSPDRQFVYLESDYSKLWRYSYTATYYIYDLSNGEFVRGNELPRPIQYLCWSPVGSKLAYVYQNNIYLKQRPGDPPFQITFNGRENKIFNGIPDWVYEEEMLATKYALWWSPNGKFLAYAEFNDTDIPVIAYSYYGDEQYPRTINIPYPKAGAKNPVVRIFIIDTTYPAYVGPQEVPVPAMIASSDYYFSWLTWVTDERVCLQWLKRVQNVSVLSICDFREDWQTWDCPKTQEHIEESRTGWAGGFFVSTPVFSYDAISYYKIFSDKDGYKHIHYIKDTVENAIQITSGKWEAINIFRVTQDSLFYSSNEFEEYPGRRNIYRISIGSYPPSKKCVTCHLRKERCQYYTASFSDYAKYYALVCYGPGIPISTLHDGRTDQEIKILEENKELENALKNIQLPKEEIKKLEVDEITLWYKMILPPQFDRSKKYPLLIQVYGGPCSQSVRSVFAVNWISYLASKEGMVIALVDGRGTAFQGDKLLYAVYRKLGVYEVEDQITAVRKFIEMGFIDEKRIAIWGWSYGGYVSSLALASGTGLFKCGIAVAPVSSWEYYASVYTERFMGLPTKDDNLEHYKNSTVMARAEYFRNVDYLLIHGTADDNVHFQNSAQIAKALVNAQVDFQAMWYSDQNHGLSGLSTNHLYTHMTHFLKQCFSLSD

T1: mouse FAP on transiently transfected HEK293T cells (pMET7 FLAG-mFAP) (mouse) (UniProt P97321)
T1 sequence (looked up): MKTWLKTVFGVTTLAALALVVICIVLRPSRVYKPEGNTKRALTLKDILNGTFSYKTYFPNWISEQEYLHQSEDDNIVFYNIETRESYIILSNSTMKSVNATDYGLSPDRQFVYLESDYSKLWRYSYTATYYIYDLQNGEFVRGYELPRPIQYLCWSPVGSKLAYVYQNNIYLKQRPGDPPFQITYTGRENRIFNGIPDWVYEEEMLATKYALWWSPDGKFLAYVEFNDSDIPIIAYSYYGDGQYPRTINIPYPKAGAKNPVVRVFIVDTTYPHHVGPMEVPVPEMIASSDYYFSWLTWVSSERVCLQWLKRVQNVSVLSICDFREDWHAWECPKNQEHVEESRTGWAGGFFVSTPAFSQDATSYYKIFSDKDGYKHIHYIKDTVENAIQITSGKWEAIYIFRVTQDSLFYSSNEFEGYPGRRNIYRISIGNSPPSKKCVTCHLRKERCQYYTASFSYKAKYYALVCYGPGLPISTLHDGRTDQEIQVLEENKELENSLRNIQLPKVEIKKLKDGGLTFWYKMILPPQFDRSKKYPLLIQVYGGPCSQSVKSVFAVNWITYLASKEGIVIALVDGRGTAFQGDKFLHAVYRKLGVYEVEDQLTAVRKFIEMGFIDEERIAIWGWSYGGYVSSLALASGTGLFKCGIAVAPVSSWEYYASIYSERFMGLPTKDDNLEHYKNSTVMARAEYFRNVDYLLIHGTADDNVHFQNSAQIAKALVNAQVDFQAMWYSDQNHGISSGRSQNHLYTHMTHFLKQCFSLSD


What was measured:
[1] = target: recombinant human FAPa extracellular domain (human) (UniProt Q12884); assay: library panning on coated antigen, positive colonies; members in Table 6
[2] = target: human FAP on transiently transfected HEK293T cells (pMET7 FLAG-hFAP) (human) (UniProt Q12884); assay: FACS, serial dilution of purified VHH on transfected HEK293T cells
[3] = target: T1, mouse FAP on transiently transfected HEK293T cells (pMET7 FLAG-mFAP) (mouse); assay: as above

| binding [1] | binding [2] | binding [3] | Binder |
| --- | --- | --- | --- |
| binds | binds | binds | 3PE94 (VHH) VHH: QVQLQESGGGLVQPEGSLRLSCAASGSISSINAMAWYRQAPGKRRELVAGIDGGGVTNYPDSVKGRFTISRDNAKNTVYLQMSSLKPEDTAVYYCNLWPPRASPGGRVYWGQGTQVTVSS |
| binds | binds | – | 3PE93 (VHH) VHH: QVQLQESGGGLVQPGESLRLSCAVSGSTSSMNAMAWYRQAPGKRRELVAGISGGGATNYPDSMKGRFTISRDNAKNTVYLQMSSLKPEDTAVYYCNLWPPRASPGGGVYWGQGTQVTVSS |
| binds | binds | – | 2PE17 (VHH) VHH: QVQLQESGGGLVQSGGSLRLSCAASGSTFSINAVAWYRQAPGKRRELVAGISGGGVTNYPDSVKGRFTISRDNAKNTVYLQMSSLKPEDTAVYYCNLWPPRASPGGRVYWGQGTQVTVSS |
| binds | binds | – | 2PE36 (VHH) VHH: QVQLQESGGGLVQPGGSLRLSCAASGSTFSINAVAWYRQAPGKRRELVAGISGGGVTNYPDSVKGRFTISRDNAKNTVYLQMSSLKPEDTAVYYCNLWPPRASPDGRVYWGQGTQVTVSS |
| binds | binds | – | 2PE42 (VHH) VHH: QVQLQESGGGLVQAGGSLRLSCAASGSTFSINAVAWYRQAPGKRRELVAGISGGGVTNYPDSVRGRFTISRDNAKNTVYLQMSSLKPEDTAVYYCNLWPPRASPDGRVYWGQGTQVTVSS |
| binds | binds | – | 3PE12 (VHH) VHH: QVQLQESGGGLVQPGGSLRLSCAASGSTFSGNAMAWYRQAPGKRRELVAGISGGGVTNYPDSVKGRFTISRDNAKNTVYLQMSSLKPEDTAVYYCNLWPPRVSPGGGVYWGQGTQVTVSS |
| binds | binds | – | 3PE42 (VHH) VHH: QVQLQESGGGLVQPGESLRLSCAVSGSTSSMNAMAWYRQAPGKRRELVAGISGGGATNYPDSVKGRFTISRDNAKNTVYLQMSSLKPEDTAVYYCNLWPPRASPGGGVYWGQGTQVTVSS |
| binds | binds | – | 3PE57 (VHH) VHH: QVQLQESGGGLVQPGGSLRLSCAASGSTFSVNAVAWYRQAPGKRRELVAGISGGGVTNYPDSVKGRFTISRDNAKNTVYLQMSSLKPEDTAVYYCNLWPPRASPDGRVYWGQGTQVTVSS |
| binds | binds | – | 2PE44 (VHH) VHH: QVQLQESGGGLVQPGGSLRLSCAASGSTFSVNAVAWYRQAPGKRRELVAGISGGGVTNYPDSVKGRFTISRDNAKNTVYLQMSSLIPEDTAVYYCNLWPPRASPGGRVYWGQGTQVTVSS |

Further lines, the binder ahead of its results:

| Binder | binding [1] | binding [2] | binding [3] |
| --- | --- | --- | --- |
| 2PE31 (VHH) VHH: QVQLQESGGGLVQAGGSLSVSCAASGSIFSMGWFRQAPGKQRELVAAVTSGGVTNYADSVKGRFTISRDNAKNTVYLQMKSLKPEDTAVYYCAADSSRGKIYFSNYRSWNYWGQGTQVTVSS | binds | – | – |
| 2PE10 (VHH) VHH: QVQLQESGGGLVQAGGSLRLSCAASGSTFSINAMMWYRQAPGKQRELVASIGSGGNTYYADSVKGRFTISRDNGKSTLYLQMNSLKPEDTAVYYCKMYRPGTYDYWGQGTQVTVSS | binds | – | – |
| 3PE66 (VHH) VHH: QVQLQESGGGWVQPGGSLRLSCAASGSTFSINAMMWYRQAPGKQRELVASIGSGGNTYYADSVKGRFTISRDNGKSTLYLQMNSLKPEDTAVYYCKMYRPGTYDYWGQGTQVTVSS | binds | – | – |
| 2PE14 (VHH) VHH: QVQLQESGGGLVQPGGSLRLSCAASGSTFSINAVAWYRQAPGKRRELVAGISGGGVTNYPDSVKGRFTISRDNAKNTVYLQMSSLKPEDTAVYYCNLWPPRASPGGRVYWGQGTQVTVSS | binds | binds | – |
| 2PE91 (VHH) VHH: QVQLQESGGGLVQPGESLRLSCAASGSISSRNAMGWYRQAPGKEREWVAGITSDGITNYADSVKGRFTISRDNAKNTVGLQMNSLKPDDTAVYYCNFWPPLYGRPWGQGTQVTVSS | binds | – | – |
| 3PE15 (VHH) VHH: QVQLQESGGGLVQPGGSLRLSCAASGVTFGIGAMGWYRQTPENERELVAAISSGGSTNYAASVKGRFTISRDNAPNTVYLQMNSLKPEDTAIYYCNVRRGLAWYPGWGQGTQVTVSS | binds | – | – |
| 3PE80 (VHH) VHH: QVQLQESGGGLVQAGGSLRLSCAVSGSTARLDAMGWYRQAPGKQREWVAGIDSADITDYARFVKGRFTISRDNAKNTVYLQMNSLKPEDTAVYYCNKWPPSVPPNWGQGTQVTVSS | binds | – | – |
| 2PE79 (VHH) VHH: QVQLQESGGGLVQAGESLRLSCAVSATISSMNSMAWYRQAPGKQREWVAGLETGGRANYVDSVKGRFTISRDNARNTVLLQMNSLKPEDTAVYYCNRWPPLRSSWGQGTQVTVSS | binds | – | – |
| 2PE54 (VHH) VHH: QVQLQESGGGLVQAGGSLRLSCVHSGGIFTIGPLGWYRQAPGSQRELVATVTNGGGTYYADSVKGRFTISRDNAKNTVYLQMNSLKPEDTAVYYCNAAVVTAKGMGAIQSRGYWGQGTQVTVSS | binds | – | – |
| 3PE81 (VHH) VHH: QVQLQESGGGLVQAGGSLRLSCAHSGGIFTIGPLGWYRQAPGSQRELVATVTNGGGTYYADSVKGRFTISRDNAKNTVYLQMNSLKPEDTAVYYCNAAVVTAKGMGAIQSRGYWGQGTQVTVSS | binds | – | – |
| 2PE57 (VHH) VHH: QVQLQESGGGLVQAGGSLRLSCAASLKISSINAMAWYRQAAGKQRELVAGIATDGRTNYAHSVKGRFTISRDNAKNTVYLQMNSLKPEDTAVYYCNQWPPRALDAWGQGTQVTVSS | binds | – | – |
| 2PE23 (VHH) VHH: QVQLQESGGGLVQPGGSLRLSCADSGSTFSINNAMGWYRQAPGKRRDWVAGITSSGVTNYPDSVKGRFTISRDNAKNTVYLQMNSLKPEDTAVYYCNLWPPRASPSGTIYWGQGTQVTVSS | binds | – | – |
